The results in this text go back to PubChem BioAssay AID445 (National Center for Advancing Translational Sciences (NCATS), 2006).

Some of the results follow. Further columns of the screen follow, without active or inactive calls. Most of these compounds were active or inconclusive in the main read-out, so they are no random draw. Potencies come from curve fits of mixed quality, noted in brackets.

The nature of this experiment: IkB Signaling. The settings on record: ABC-DLBCL IkBa-CBG/CBR dual luciferase ratio (green luciferase fused to IkBa over red control in OCI-Ly3 lymphoma cells), 4 h. The method in brief: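 Luminescence ratio of IκBα-fused green versus native red beetle luciferase in OCI-Ly3 cells, 4 h post-doxycycline with compound; red signal alone, scaled from basal (0%) to zero light (-100%), flagged nonspecific or cytotoxic effects.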
[1] abbreviates: measured here: control luc red channel unless noted.
[2] abbreviates: measured here: IkB-luc green channel.
Setting [3] is: measured here: control luc red channel.

As usually defined, the AC50 is the concentration giving half of the maximal activity seen. Consider `Cc1oc(-c2cccc(Cl)c2)nc1CS(=O)(=O)CC(=O)NC(C)CCc1ccccc1` (configuration not stated), for which the concentration at half-maximal activity (AC50) under setting [1] was 20 µM [falling, partial curve].
Consider `Cc1ccc(NC(=O)C2CCCN(C(=O)c3cnn(-c4ccc(F)cc4)c3-n3cccc3)C2)c(Cl)c1` (configuration not stated), for which, under setting [1], the half-maximal activity concentration (AC50) is 15.8 µM [falling, partial curve].
`O=C(NCCc1ccccc1Cl)C1CCN(c2nc3ccccc3nc2C(F)(F)F)CC1`: the AC50 under setting [1] is 6.31 µM [rising, partial curve, poor fit].
Regarding `O=C(c1cccc(C(=O)N2CCN(c3ccccc3F)CC2)c1)N1CCN(c2ccccc2F)CC1`, the AC50 under setting [1] was 3.16 µM [falling, full curve].
`CCOc1ccc(/C=C/c2nc(C#N)c(NCc3ccccc3)o2)cc1`: the AC50 under setting [1] was 1 µM [rising, full curve].
On the same count and under the same terms, in the case of `O=C(CCC1N=C2c3ccccc3N=C(SCc3ccc(F)cc3)N2C1=O)NCCc1ccccc1` (configuration not stated) it was 3.16 µM [falling, partial curve].
`CCOc1ccc(NC(=O)c2c(NCc3cccc(OC)c3OC)sc3c2CCC3)cc1`: under setting [1], the AC50 is 20 µM [falling, single point].
On to `CCc1ccc(NC(=O)CN(c2ccc(Cl)cc2)S(=O)(=O)c2ccsc2C(=O)OC)cc1`, for which the AC50 under setting [1] is 25.1 µM [falling, partial curve].
On to `Nc1c(C(=O)Nc2ccccc2Cl)c2ccccn2c1C(=O)c1ccccc1`, for which the concentration at half-maximal activity (AC50) under setting [1] was 0.2 µM [falling, full curve, poor fit].
Consider `Cc1ccc(C)c(CN2C(=O)C(O)(c3c(C)[nH]c4ccccc34)c3ccccc32)c1` (configuration not stated), for which, under setting [1], the AC50 was 25.1 µM [falling, single point].
For the compound `O=C(C1CCCN(S(=O)(=O)c2cccc3nsnc23)C1)N1CCN(c2ccccc2)CC1` (configuration not stated), the concentration at half-maximal activity (AC50) under setting [1] was 15.8 µM [falling, partial curve].
Consider `O=C1NCN(c2ccccc2)C12CCN(CCCC(c1ccc(F)cc1)c1ccc(F)cc1)CC2`, for which the half-maximal activity concentration (AC50) under setting [2] is 31.6 µM [falling, partial curve, poor fit] and the AC50 under setting [3] was 31.6 µM [falling, partial curve].
`CCOC(=O)N1CCN(C(=O)CN(c2ccccc2F)S(=O)(=O)c2ccc(C)cc2)CC1`: the half-maximal activity concentration (AC50) under setting [1] was 20 µM [falling, partial curve].
On to `O=C(NCc1cccs1)c1ccc2c(c1)N(Cc1cccc(F)c1)C(=O)c1ccccc1S2`, for which the concentration at half-maximal activity (AC50) under setting [1] was 31.6 µM [falling, partial curve].
As to `CCOC(=O)c1c(C)[nH]c(C)c1S(=O)(=O)NCC(=O)NCc1cccc(Br)c1`, under setting [1], the half-maximal activity concentration (AC50) was 39.8 µM [falling, partial curve, poor fit].
For the compound `Cc1ccccc1Cn1nc(C)c(NC(=O)c2cc3nc(-c4ccco4)cc(C(F)(F)F)n3n2)c1C`, the AC50 under setting [1] was 25.1 µM [falling, partial curve].
Still for that read-out and setting: the result for `O=C(Nc1ccc(Oc2ccccc2)cc1)c1ccc(F)c(S(=O)(=O)N2CCN(c3ccccc3F)CC2)c1` reads 7.94 µM [falling, partial curve]; that for `COc1cccc(NC(=O)/C(C#N)=C/c2ccc(-c3ccc(C)cc3)o2)c1`, 10 µM [falling, partial curve]; that for `COc1cccc(C(=O)COC(=O)c2cc(-c3cccs3)nc3ccccc23)c1`, 39.8 µM [falling, single point].
Consider `Cc1ccccc1OCC(=O)Nc1nnc(SCc2cc(=O)n3cc(Cl)ccc3n2)s1`, for which the half-maximal activity concentration (AC50) under setting [1] was 2.51 µM [falling, full curve].
As for `Cc1ccc(-n2nc(C)c(C(=O)NCCCN3CCN(c4cccc(Cl)c4)CC3)c2-n2cccc2)cc1`, under setting [1], the concentration at half-maximal activity (AC50) was 10 µM [falling, partial curve].
On to `Cc1ccc(NC(=O)c2cccc(NC(=O)N3CCSc4ncccc43)c2)cc1F`, for which the half-maximal activity concentration (AC50) under setting [1] is 3.98 µM [falling, partial curve].
In the case of `CCCN1C(=O)c2oc3cc(C)cc(C)c3c(=O)c2C1c1ccc(F)cc1` (configuration not stated), under setting [1], the AC50 is 0.251 µM [rising, partial curve].
In the case of `COc1ccc(-c2cc(C(F)(F)F)nc(SCC(=O)Nc3ccc(O)cc3)n2)cc1OC`, the concentration at half-maximal activity (AC50) under setting [1] was 0.126 µM [rising, full curve].
`CCCNc1ncnc2c1c(-c1ccccc1)cn2-c1ccccc1`: the AC50 under setting [1] is 12.6 µM [falling, single point].
For the compound `C[C@@]12CCC(=O)C=C1CC[C@H]1[C@@H]2[C@@H](O)C[C@]2(C)[C@@H]1CC[C@@]2(O)C(=O)CO`, the half-maximal activity concentration (AC50) under setting [1] is 15.8 nM [rising, full curve] [measured here: IkB-luc green channel].
Still for that read-out and setting: in the case of `Cc1coc2c(C)c3oc(=O)c(CCC(=O)N4CCCCC4)c(C)c3cc12` it was 39.8 µM [falling, single point]; in that of `O=C(Cn1ccc2cc(S(=O)(=O)N3CCCCCC3)ccc21)NCc1cccc(Cl)c1`, 0.631 µM [falling, full curve, poor fit]; in that of `O=C(Cc1coc2ccc3ccccc3c12)N1CCN(c2ncccn2)CC1`, 25.1 µM [falling, single point].
For `Cc1cc(O)cc(O)c1-c1onc(C(F)(F)F)c1-c1cscn1`, under setting [1], the concentration at half-maximal activity (AC50) is 12.6 µM [falling, partial curve].
Turning to `COCCn1c(C)cc(O)c(C(c2ccccc2Cl)N2CCCCC2)c1=O` (configuration not stated), the AC50 under setting [1] was 0.0501 µM [falling, full curve].
Turning to `CCCN1CCN(CCCNC(=O)c2cc3c(s2)-c2ccccc2OC3)CC1`, under setting [1], the AC50 is 12.6 µM [falling, partial curve].
In the case of `N#Cc1ccccc1OCC(=O)N1CCN(c2ccccc2)CC1`, the AC50 under setting [1] was 39.8 µM [falling, single point].
Still for that read-out and setting: the result for `N=C(C[C@@H](O)COc1ccccc1-c1ccccc1)N1CCCCC1` reads 31.6 µM [falling, partial curve]; that for `Cc1nc2c(c(C)c1CCC(=O)Nc1ccc(F)cc1)c(=O)n(C)c(=O)n2C`, 6.31 µM [falling, partial curve]; that for `CCc1cccc(-n2nnc(S(=O)(=O)c3ccc(OC)cc3)c2C)c1`, 2.51 µM [falling, partial curve].
Still for that read-out and setting: the result for `CCOC(=O)c1c(C)n(C)c2ccc(OCC(O)Cn3nc(C)c(Br)c3C)cc12` (configuration not stated) reads 15.8 µM [falling, partial curve].
On to `N#C/C(=C\c1cccs1)Sc1nc2ccccc2s1`, for which the half-maximal activity concentration (AC50) under setting [1] was 31.6 µM [falling, single point].
For `Cc1ccc(N(CC(O)Cn2c3ccccc3c3ccccc32)S(=O)(=O)c2ccc(F)cc2)cc1` (configuration not stated), the concentration at half-maximal activity (AC50) under setting [1] is 20 µM [falling, partial curve].
On the same count and under the same terms, the result for `Cc1cc(NC(=O)CSc2nc(-c3cccc(F)c3)nc3c2c(=O)n(C)c(=O)n3C)no1` reads 20 µM [rising, partial curve].
As to `Cc1ccc2nc3sc(C(=O)N4CCOCC4)c(N)c3cc2c1`, the half-maximal activity concentration (AC50) under setting [1] is 12.6 µM [falling, partial curve].
The same measure, in the same setting: in the case of `CCOC(=O)c1ccc(N2CC3=C(C2=O)C(c2ccc(OC)cc2)NC(=O)N3C)cc1` (configuration not stated) it was 5.01 µM [rising, partial curve, poor fit].
Consider `COc1ccc2c(Sc3ccc(C)cc3)c(C(=O)NCC(C)c3ccccc3)[nH]c2c1` (configuration not stated), for which, under setting [1], the AC50 is 7.94 µM [falling, full curve].
Consider `CCOC(=O)N1CCN(CCC(=O)c2ccc(Cl)cc2)CC1`, for which the concentration at half-maximal activity (AC50) under setting [1] was 31.6 µM [falling, single point].
Regarding `COc1ccccc1NC(=O)c1oc2ccccc2c1NC(=O)Cc1cccs1`, the AC50 under setting [1] was 0.631 µM [falling, full curve, poor fit].
As for `COc1cc2c(cc1OC)C(c1ccc(Cl)cc1)N(c1cccc(C#N)c1)C(=O)C2` (configuration not stated), the AC50 under setting [1] is 39.8 µM [falling, single point].
Consider `CCOC(=O)c1cc(=O)n2[nH]c(-c3ccc(C)cc3)cc2n1`, for which the half-maximal activity concentration (AC50) under setting [1] is 31.6 µM [falling, single point].
Same read-out and setting: in the case of `CCc1nnc(NC(=O)CSc2nc3c([nH]c4ccccc43)c(=O)n2-c2ccc(F)cc2)s1` it was 1 µM [rising, full curve, poor fit]; in that of `N#CC1=C(N)N(c2ccc(Br)cc2)C2=C(C(=O)CCC2)C1c1cccnc1` (configuration not stated), 3.16 µM [falling, full curve].
For the compound `COc1ccccc1/C=C/c1onc(C)c1S(=O)(=O)N1CCC(C(=O)N2CCC(C)CC2)CC1`, under setting [1], the concentration at half-maximal activity (AC50) is 6.31 µM [rising, single point].
As for `O=C(CSc1nnc(-c2cccs2)n1CC1CCCO1)c1cc2ccccc2o1` (configuration not stated), under setting [1], the half-maximal activity concentration (AC50) was 12.6 µM [falling, partial curve].
On the same count and under the same terms, the result for `CCOc1ccc(NC(=O)c2ccccc2CO)cc1` reads 15.8 µM [falling, partial curve]; that for `CC(=O)N1CCN(c2ccc(NC(=O)c3ccc(C(C)(C)C)cc3)cc2)CC1`, 25.1 µM [falling, partial curve]; that for `COC(=O)c1sccc1S(=O)(=O)N(CC(=O)Nc1ccccc1C)c1ccc(Cl)cc1`, 10 µM [falling, partial curve].
In the case of `CC[C@@H]1CN2CCc3cc(OC)c(OC)cc3[C@H]2C[C@@H]1C[C@@H]1NCCc2cc(OC)c(OC)cc21`, the AC50 under setting [2] is 0.158 µM [falling, full curve] and the half-maximal activity concentration (AC50) under setting [3] is 0.2 µM [falling, full curve].
Consider `COc1ccc2oc(=O)c(C(=O)NCCc3c(C)[nH]c4ccc(C)cc34)cc2c1`, for which the AC50 under setting [1] was 10 µM [falling, partial curve].
With `O=C(Nc1ccccc1-c1nnn(CC(=O)N2CCCc3ccccc32)n1)c1ccco1`, the AC50 under setting [1] is 0.794 µM [falling, full curve].
As to `Cc1nn(-c2ccccc2)c(-n2cccc2)c1C(=O)N1CCN(c2ccccc2)CC1`, the AC50 under setting [1] was 7.94 µM [falling, partial curve].
Consider `Cc1cc(OCC(=O)N(Cc2ccc(N(C)C)cc2)Cc2ccco2)cc(C)c1Cl`, for which, under setting [1], the AC50 is 20 µM [falling, partial curve].
Turning to `CCOC(=O)c1ccc(OC(=O)c2cn(-c3ccc(C)cc3)c(=O)c3ccccc23)cc1`, the half-maximal activity concentration (AC50) under setting [1] was 15.8 µM [falling, partial curve].
